# Measured values from PubChem BioAssay AID270 (DTP/NCI, 2004).
# The list shows only some results of the screen, not a fair sample: it is rich in T/C values a quarter to a half above the control, in often repeated tests (any T/C) and in doses without a T/C. Further doses and runs are listed elsewhere. T/C is the treated group as % of the vehicle group. Some doses have a count of surviving animals in place of a T/C: the source files T/C as zero there, which appears to mark a toxic dose or a test without result, not a measured value. Some doses without a T/C left all or most animals alive at the check, yet need not have been tolerated: survival well below the control is almost never listed, so the zero probably covers shortened survival too. Survivors were counted at the toxicity check, usually on the fifth day, unless a day is given; later deaths do not show. Schedules are NCI's codes, taken here to give the interval after Q, in days (D) or hours (H), and the number of doses after X. Some doses were run more than once; the results are listed from low to high. Where survival is the endpoint, this PubChem deposit counts one and a half times the control or more as active, and values a quarter to a half above the control carry no call in these data; other NCI protocols may use other cut-offs.
# Test system: BDF1 mice, s.c. Lewis lung carcinoma, T/C %
# Experiment: NCI In Vivo Anticancer Drug Screen. Data for tumor model Lewis Lung Carcinoma (subcutaneous) in B6D2F1 (BDF1) mice
# Conditions: T/C endpoint: median survival time, higher T/C = longer survival
# Procedure, shortened: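 The value reflects a ratio in which the treated cohort's survival time or tumour size is compared against mice receiving only vehicle.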
# [1] = dose: 0.4 mg/kg/injection, schedule: Q01DX009 (ip), vehicle: saline
smiles,measurement,setting,value
CCNCc1cc(Nc2cc(C)nc(/N=C(\N)Nc3ccc(Cl)c(Cl)c3)n2)ccc1OC,survivor count,"dose: 6.25 mg/kg/injection, schedule: Q01DX009 (ip), vehicle: Klucel (hydroxypropylcellulose) (HPC)",9 of 10 and 10 of 10
same,survivor count,"dose: 12.5 mg/kg/injection, schedule: Q01DX009 (ip), vehicle: Klucel (hydroxypropylcellulose) (HPC)",10 of 10
same,survivor count,"dose: 25.0 mg/kg/injection, schedule: Q01DX009 (ip), vehicle: Klucel (hydroxypropylcellulose) (HPC)",10 of 10
same,survivor count,"dose: 50.0 mg/kg/injection, schedule: Q01DX009 (ip), vehicle: Klucel (hydroxypropylcellulose) (HPC)",9 of 10
COc1cc2c(cc1OC)-c1ccc3cc4c(cc3c1N(C)C2)OCO4,survivor count,"dose: 10.0 mg/kg/injection, schedule: Q01DX009 (ip), vehicle: water",9 of 9
COc1cccc2c1C(=O)c1c(O)c3c(c(O)c1C2=O)C[C@@](O)(C(=O)CO)C[C@@H]3OC1CC(N)C(O)C(C)O1 (some centres undefined),survivor count,"dose: 0.5 mg/kg/injection, schedule: Q01DX009 (ip), vehicle: saline",10 of 10
same,survivor count,"dose: 2.0 mg/kg/injection, schedule: Q08HX024 (ip), vehicle: saline",10 of 10
same,survivor count,"dose: 5.6 mg/kg/injection, schedule: Q04DX003 (ip), vehicle: saline",8 of 8
same,T/C,"dose: 5.6 mg/kg/injection, schedule: Q04DX003 (iv), vehicle: saline",141 % of control
same,T/C,"dose: 6.86 mg/kg/injection, schedule: Q01DX001 (ip), vehicle: saline",130 % of control
same,survivor count,"dose: 8.0 mg/kg/injection, schedule: Q04DX003 (ip), vehicle: saline",8 of 8
same,survivor count,"dose: 8.0 mg/kg/injection, schedule: Q04DX003 (iv), vehicle: saline",8 of 8
same,survivor count,"dose: 9.8 mg/kg/injection, schedule: Q01DX001 (ip), vehicle: saline",7 of 8 and 8 of 8
same,survivor count,"dose: 9.8 mg/kg/injection, schedule: Q01DX001 (iv), vehicle: saline",6 of 8
same,survivor count,"dose: 14.0 mg/kg/injection, schedule: Q01DX001 (ip), vehicle: saline",8 of 8
same,survivor count,"dose: 14.0 mg/kg/injection, schedule: Q01DX001 (iv), vehicle: saline",6 of 8 and 8 of 8
CCCCCCCCSC1=C(Cl)C(=O)C(OC)=C(OC)C1=O,T/C,"dose: 3.13 mg/kg/injection, schedule: Q01DX009 (ip), vehicle: other",125 % of control
same,survivor count,"dose: 6.25 mg/kg/injection, schedule: Q01DX009 (ip), vehicle: other",10 of 10
same,survivor count,"dose: 25.0 mg/kg/injection, schedule: Q01DX009 (ip), vehicle: other",10 of 10
same,survivor count,"dose: 37.5 mg/kg/injection, schedule: Q01DX009 (ip), vehicle: other",10 of 10
Nc1ncn(C2CC(O)C(CO)O2)c(=O)n1 (centres undefined),T/C,"dose: 0.05 mg/kg/injection, schedule: Q01DX009 (ip), vehicle: Klucel (hydroxypropylcellulose) (HPC)",144 % of control
same,T/C,"dose: 0.1 mg/kg/injection, schedule: Q01DX009 (ip), vehicle: Klucel (hydroxypropylcellulose) (HPC)",136 % of control
same,T/C,"dose: 0.2 mg/kg/injection, schedule: Q01DX009 (ip), vehicle: Klucel (hydroxypropylcellulose) (HPC)",130 % of control
same,T/C,"dose: 0.4 mg/kg/injection, schedule: Q01DX009 (ip), vehicle: Klucel (hydroxypropylcellulose) (HPC)",144 % of control
same,T/C,[1],131 % of control
same,survivor count,[1],10 of 10
same,survivor count,"dose: 0.8 mg/kg/injection, schedule: Q01DX009 (ip), vehicle: saline",10 of 10
same,survivor count,"dose: 1.6 mg/kg/injection, schedule: Q01DX009 (ip), vehicle: saline",10 of 10
same,survivor count,"dose: 3.2 mg/kg/injection, schedule: Q01DX009 (ip), vehicle: saline",10 of 10
